Consider two molecules from article PMC7387855.

Amino acid sequences for entries named in this document (tags omitted).
UniProt Q9LN63: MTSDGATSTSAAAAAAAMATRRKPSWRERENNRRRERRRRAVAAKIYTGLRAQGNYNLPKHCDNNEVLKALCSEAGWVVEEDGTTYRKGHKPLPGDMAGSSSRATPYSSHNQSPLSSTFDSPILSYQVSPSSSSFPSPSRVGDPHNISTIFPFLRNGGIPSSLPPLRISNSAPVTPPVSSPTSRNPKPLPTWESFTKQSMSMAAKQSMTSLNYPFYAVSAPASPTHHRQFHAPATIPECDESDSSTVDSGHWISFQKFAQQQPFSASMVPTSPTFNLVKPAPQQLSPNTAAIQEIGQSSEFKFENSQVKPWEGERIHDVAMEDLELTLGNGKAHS
UniProt P0A850: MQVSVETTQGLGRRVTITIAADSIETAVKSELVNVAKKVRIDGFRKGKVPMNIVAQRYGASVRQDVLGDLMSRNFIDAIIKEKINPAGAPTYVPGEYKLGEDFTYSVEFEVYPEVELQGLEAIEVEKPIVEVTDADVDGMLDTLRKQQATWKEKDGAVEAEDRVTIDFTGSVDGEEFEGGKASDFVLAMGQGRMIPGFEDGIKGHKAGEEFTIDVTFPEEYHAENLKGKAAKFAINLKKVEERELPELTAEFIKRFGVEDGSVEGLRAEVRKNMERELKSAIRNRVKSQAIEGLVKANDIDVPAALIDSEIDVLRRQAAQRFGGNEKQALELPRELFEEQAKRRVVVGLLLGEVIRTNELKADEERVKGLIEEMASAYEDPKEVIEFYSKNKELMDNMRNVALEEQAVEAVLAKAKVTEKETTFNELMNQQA

Results are given in words; binding and its absence hold for the method and conditions named. Binding seen in cells or lysates may run through a third protein. Some entries that bind do so weakly or less than the wild type. Where a sequence is shown, tags or fusion partners need not be part of it.

The target of the assay is GST-BES1 (UniProt Q9LN63). Nature of the assay: pull-down; in vitro; GST-BES1 as bait; detected with anti-His antibody.

As to His-TF (from UniProt P0A850 1-432), the binding result is “no binding”.

B1: His-AGB1 (protein, UniProt P49177 1-377)
chain: MSVSELKERHAVATETVNNLRDQLRQRRLQLLDTDVARYSAAQGRTRVSFGATDLVCCRTLQGHTGKVYSLDWTPERNRIVSASQDGRLIVWNALTSQKTHAIKLPCAWVMTCAFSPNGQSVACGGLDSVCSIFSLSSTADKDGTVPVSRMLTGHRGYVSCCQYVPNEDAHLITSSGDQTCILWDVTTGLKTSVFGGEFQSGHTADVLSVSISGSNPNWFISGSCDSTARLWDTRAASRAVRTFHGHEGDVNTVKFFPDGYRFGTGSDDGTCRLYDIRTGHQLQVYQPHGDGENGPVTSIAFSVSGRLLFAGYASNNTCYVWDTLLGEVVLDLGLQQDSHRNRISCLGLSADGSALCTGSWDSNLKIWAFGGHRRVI
Take B1: the binding entry is “binds”.
